Experimental findings from the supplement of paper PMC12819154, “High-throughput peptide-centric local stability assay extends protein–ligand identification to membrane proteins, tissues and bacteria” (Nature Structural & Molecular Biology, 2025) are described below.

By UniProt entry, the sequences of proteins in these tests, tags left out. Where a name states a change or a piece, a line headed by the entry shows the natural chain unless it says otherwise.
UniProt Q8N6S4: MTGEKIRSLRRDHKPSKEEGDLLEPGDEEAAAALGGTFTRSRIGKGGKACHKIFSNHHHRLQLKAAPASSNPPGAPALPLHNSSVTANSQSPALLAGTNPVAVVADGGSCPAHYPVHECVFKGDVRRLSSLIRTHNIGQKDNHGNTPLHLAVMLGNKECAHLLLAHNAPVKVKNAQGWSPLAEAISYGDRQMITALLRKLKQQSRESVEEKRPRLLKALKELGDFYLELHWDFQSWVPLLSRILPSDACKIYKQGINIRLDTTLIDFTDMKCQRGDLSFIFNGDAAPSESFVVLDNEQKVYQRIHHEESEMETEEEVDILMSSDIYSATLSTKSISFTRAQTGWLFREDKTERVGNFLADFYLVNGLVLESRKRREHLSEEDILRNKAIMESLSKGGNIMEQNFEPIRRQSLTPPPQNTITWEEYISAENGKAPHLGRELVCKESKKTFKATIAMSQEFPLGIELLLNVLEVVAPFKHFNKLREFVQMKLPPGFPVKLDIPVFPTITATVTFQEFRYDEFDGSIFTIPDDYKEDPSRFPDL
UniProt Q8N782: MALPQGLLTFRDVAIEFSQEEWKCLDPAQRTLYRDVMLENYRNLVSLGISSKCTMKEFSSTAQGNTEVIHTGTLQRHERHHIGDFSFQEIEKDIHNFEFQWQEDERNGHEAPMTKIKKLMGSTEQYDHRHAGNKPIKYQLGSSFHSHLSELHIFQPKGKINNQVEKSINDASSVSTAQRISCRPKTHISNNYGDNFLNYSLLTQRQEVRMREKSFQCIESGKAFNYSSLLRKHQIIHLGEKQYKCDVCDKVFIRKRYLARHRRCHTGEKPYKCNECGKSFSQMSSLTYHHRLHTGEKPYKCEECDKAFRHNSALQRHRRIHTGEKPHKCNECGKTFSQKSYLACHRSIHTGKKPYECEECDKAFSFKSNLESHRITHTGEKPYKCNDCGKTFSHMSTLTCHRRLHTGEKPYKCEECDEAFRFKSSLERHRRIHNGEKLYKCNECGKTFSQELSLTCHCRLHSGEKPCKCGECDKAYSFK
UniProt Q8N1F7: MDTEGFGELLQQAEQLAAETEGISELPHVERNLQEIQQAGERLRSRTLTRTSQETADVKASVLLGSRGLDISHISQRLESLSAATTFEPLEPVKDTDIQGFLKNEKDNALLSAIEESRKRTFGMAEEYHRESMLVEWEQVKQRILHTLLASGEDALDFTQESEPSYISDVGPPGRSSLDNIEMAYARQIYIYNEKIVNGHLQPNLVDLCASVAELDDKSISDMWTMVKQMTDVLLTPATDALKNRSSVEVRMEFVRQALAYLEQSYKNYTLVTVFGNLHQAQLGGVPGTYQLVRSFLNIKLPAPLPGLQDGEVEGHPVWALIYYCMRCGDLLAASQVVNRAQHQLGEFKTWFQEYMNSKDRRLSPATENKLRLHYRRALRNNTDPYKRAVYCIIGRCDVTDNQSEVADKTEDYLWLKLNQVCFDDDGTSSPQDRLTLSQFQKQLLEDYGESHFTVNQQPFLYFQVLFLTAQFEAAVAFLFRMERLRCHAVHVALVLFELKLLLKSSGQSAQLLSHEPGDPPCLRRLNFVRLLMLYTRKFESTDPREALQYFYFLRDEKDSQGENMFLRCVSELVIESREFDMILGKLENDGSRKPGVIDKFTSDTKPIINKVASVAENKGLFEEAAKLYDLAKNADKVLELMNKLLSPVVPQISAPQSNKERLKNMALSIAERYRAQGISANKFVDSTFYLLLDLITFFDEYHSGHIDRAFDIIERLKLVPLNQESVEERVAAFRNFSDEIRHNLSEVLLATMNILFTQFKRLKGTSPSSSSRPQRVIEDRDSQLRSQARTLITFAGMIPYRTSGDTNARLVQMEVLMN
UniProt Q8NFF5: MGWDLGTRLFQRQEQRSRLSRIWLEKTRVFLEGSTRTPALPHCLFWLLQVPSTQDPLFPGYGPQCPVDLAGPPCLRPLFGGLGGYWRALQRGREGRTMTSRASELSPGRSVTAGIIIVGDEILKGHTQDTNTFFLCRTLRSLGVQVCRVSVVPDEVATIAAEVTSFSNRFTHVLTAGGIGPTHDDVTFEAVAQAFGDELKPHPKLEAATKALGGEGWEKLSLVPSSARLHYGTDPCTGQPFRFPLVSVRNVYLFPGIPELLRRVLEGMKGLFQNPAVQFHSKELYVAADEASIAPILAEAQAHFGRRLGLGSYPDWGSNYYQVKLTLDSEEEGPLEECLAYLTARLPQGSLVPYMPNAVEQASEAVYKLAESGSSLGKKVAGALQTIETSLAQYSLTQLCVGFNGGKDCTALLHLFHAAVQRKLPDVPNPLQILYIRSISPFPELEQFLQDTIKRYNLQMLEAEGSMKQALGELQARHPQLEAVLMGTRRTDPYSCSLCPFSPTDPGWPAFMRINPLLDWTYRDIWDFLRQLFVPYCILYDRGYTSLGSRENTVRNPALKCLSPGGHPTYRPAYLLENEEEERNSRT
UniProt Q8NF50: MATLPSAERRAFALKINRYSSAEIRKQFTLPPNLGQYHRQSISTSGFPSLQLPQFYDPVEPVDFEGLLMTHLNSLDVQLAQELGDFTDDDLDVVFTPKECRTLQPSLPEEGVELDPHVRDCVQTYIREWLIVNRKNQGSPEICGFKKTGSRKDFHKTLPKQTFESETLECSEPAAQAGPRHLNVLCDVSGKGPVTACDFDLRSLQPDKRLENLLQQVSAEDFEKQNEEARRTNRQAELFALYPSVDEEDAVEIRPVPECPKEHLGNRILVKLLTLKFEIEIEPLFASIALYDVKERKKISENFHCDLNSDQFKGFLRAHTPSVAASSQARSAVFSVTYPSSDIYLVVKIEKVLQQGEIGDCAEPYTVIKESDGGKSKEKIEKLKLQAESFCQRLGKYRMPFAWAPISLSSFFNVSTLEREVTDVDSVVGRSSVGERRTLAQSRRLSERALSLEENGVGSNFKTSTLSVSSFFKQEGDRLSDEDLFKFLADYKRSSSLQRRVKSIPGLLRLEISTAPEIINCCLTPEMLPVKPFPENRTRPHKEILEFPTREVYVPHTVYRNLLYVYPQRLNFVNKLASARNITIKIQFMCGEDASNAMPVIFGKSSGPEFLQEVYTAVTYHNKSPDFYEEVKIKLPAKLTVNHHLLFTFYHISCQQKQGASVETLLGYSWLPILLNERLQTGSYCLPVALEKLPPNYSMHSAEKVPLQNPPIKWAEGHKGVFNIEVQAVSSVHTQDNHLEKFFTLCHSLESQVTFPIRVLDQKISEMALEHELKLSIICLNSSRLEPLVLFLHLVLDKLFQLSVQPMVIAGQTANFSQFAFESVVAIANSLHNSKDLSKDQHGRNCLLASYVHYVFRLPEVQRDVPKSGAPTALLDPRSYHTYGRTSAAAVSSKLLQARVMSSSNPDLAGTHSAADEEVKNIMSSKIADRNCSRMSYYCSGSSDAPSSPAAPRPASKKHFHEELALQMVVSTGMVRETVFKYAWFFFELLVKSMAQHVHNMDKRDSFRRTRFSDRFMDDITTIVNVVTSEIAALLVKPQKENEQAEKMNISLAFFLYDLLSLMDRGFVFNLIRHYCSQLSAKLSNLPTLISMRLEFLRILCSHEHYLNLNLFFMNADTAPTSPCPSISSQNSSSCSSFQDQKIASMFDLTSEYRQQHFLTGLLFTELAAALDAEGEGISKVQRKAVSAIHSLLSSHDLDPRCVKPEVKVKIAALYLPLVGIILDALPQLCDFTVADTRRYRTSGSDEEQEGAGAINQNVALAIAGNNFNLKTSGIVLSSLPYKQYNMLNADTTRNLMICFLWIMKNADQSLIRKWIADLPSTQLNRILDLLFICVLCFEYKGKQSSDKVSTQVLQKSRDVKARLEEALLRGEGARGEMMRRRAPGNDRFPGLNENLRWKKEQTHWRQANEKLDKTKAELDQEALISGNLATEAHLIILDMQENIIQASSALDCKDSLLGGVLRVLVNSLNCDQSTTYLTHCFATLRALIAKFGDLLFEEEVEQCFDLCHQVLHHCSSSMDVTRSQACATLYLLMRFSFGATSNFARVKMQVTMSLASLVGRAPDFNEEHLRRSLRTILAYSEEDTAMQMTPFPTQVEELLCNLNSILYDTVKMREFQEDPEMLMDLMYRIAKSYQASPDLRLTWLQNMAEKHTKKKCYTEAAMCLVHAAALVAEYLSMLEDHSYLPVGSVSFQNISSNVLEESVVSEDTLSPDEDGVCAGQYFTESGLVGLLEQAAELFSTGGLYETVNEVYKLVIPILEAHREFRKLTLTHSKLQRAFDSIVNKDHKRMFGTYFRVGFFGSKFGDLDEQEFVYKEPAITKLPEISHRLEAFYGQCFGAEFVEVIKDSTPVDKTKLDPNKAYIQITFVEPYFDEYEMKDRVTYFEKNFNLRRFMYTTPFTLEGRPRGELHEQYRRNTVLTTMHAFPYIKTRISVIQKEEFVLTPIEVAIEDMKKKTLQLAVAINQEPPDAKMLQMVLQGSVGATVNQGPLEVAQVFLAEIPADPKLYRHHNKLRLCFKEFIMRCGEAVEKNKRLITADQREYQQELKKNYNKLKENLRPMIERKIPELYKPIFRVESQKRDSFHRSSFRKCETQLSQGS
UniProt Q8N9N5: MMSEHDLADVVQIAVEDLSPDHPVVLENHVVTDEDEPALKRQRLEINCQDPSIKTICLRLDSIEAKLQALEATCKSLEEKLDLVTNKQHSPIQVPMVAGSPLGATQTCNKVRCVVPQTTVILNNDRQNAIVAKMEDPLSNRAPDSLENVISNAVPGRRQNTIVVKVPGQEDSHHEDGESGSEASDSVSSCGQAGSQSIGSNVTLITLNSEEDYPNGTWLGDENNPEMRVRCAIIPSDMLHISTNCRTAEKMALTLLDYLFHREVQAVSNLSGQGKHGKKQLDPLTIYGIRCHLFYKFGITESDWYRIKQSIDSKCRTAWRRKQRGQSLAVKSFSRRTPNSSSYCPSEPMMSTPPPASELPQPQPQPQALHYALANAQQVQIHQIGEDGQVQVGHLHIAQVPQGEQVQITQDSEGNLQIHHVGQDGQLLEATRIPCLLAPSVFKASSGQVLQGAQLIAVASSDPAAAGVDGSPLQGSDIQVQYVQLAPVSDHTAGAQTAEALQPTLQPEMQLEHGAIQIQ
UniProt Q8NBT2: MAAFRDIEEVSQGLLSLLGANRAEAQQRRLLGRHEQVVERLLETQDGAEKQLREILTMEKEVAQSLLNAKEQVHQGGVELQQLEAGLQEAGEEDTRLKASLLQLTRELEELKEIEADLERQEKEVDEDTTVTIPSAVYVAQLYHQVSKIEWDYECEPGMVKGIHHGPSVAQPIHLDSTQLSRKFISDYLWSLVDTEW
UniProt Q8NHP1: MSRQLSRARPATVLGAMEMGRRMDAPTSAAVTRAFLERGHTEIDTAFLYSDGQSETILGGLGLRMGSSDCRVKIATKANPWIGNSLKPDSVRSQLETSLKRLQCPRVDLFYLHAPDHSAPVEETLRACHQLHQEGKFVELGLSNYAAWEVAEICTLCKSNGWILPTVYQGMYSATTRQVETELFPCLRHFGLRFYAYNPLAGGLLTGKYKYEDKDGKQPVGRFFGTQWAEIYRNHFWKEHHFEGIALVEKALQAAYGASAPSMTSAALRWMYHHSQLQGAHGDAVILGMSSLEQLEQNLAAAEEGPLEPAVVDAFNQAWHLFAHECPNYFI
UniProt Q8N5C8: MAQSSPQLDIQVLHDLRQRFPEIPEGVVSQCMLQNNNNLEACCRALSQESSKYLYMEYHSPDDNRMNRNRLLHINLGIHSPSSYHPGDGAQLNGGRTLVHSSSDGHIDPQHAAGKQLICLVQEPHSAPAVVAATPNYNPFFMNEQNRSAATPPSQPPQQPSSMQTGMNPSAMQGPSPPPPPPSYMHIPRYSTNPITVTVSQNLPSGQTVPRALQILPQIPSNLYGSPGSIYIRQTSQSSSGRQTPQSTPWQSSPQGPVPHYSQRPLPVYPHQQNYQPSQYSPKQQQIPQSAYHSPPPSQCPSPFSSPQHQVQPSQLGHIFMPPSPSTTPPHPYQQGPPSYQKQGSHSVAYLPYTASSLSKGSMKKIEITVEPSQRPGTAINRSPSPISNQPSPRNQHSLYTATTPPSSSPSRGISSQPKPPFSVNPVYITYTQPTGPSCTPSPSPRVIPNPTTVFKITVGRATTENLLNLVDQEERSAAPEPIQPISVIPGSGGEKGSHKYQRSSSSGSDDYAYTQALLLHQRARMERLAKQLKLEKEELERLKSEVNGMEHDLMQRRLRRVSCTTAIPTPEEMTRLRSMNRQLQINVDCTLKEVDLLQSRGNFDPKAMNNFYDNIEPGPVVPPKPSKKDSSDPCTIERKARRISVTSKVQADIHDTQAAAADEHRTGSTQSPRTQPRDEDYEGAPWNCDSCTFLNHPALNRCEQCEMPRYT
UniProt Q8N3Z3: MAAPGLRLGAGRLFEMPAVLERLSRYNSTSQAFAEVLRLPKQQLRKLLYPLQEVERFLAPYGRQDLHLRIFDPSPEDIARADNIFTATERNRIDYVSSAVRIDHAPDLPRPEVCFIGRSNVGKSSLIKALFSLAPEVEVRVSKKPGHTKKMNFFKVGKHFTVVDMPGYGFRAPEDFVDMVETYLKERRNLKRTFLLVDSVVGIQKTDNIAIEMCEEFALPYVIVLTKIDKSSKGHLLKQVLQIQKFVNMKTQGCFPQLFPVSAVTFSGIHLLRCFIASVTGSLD

The other results are listed elsewhere or left out. Most values lie at the level of the controls, where differences are scatter.

Compound in this assay: Cc1nc(Nc2ncc(C(=O)Nc3c(C)cccc3Cl)s2)cc(N2CCN(CCO)CC2)n1 [dasatinib]
The assay is described as follows: log2 fold change of tryptic peptide abundance, ligand vs vehicle (limited proteolysis) (log2 ratio); higher = more trypsin-susceptible (destabilized). To be noted: ligand concentration: 5 uM; sample: K562 cleared lysate.
For “ANKRD13C (peptide sequence: GGNIMEQNFEPIRR, peptide start residue: 396) (UniProt Q8N6S4)”, the log2 fold change came out at 0.324. With “UniProt Q8N782 (peptide sequence: LMGSTEQYDHR, peptide start residue: 119)” the figure was 0.906. On to “AGBL5 (peptide sequence: ANNLQNEAQCGHSADR, peptide start residue: 368) (UniProt Q8NDL9)”, for which the log2 fold change is 0.152. Regarding “MCPH1 (peptide sequence: SDVCISSLVLK, peptide start residue: 260) (UniProt Q8NEM0)”, the log2 fold change was determined as 0.486. Then “KLHL36 (peptide sequence: QVLENIHFPLIPK, peptide start residue: 230) (UniProt Q8N4N3)”, with 0.329; and “NUP93 (peptide sequence: CHAVHVALVLFELK, peptide start residue: 487) (UniProt Q8N1F7)”, with 0.174; and “FAM98A (peptide sequence: KPMGPAHWEK, peptide start residue: 194) (UniProt Q8NCA5)”, with -0.422.

As for “REXO1 (peptide sequence: SAEAPALAPR, peptide start residue: 121) (UniProt Q8N1G1)”, the log2 fold change is -0.334. With “PCSK9 (peptide sequence: GQPNQCVGHR, peptide start residue: 583) (UniProt Q8NBP7)”, the log2 fold change came to 0.187. In the case of “FLAD1 (peptide sequence: HPQLEAVLMGTRR, peptide start residue: 478) (UniProt Q8NFF5)”, the log2 fold change was -0.417.

For the target “SVBP (peptide sequence: AEIYALNR, peptide start residue: 37) (UniProt Q8N300)”, the log2 fold change is -0.00065. On to “AVL9 (peptide sequence: GPVLHIVVVGFHHK, peptide start residue: 14) (UniProt Q8NBF6)”, for which the log2 fold change came out at 0.556. With “UniProt Q8N972 (peptide sequence: MHTGEKPYK, peptide start residue: 517)”, the log2 fold change was found to be 0.815. Turning to “CPEB3 (peptide sequence: TQPQPQQQQR, peptide start residue: 12) (UniProt Q8NE35)”, the log2 fold change is -0.349. With “NGDN (peptide sequence: VQAGAYPTEK, peptide start residue: 39) (UniProt Q8NEJ9)” the figure was -0.279; with “DOCK8 (peptide sequence: KNQGSPEICGFKK, peptide start residue: 135) (UniProt Q8NF50)”, 0.546; with “DTWD2 (peptide sequence: FSEERDPELSTVCRK, peptide start residue: 131) (UniProt Q8NBA8)”, -0.539.

Turning to “UniProt Q8NBL1 (peptide sequence: WDLFREDLVR, peptide start residue: 184)”, the log2 fold change is 0.313. As for “DTWD1 (peptide sequence: DISFHLQK, peptide start residue: 151) (UniProt Q8N5C7)”, the log2 fold change is -0.166. For “UniProt Q8NBJ5 (peptide sequence: ALQAQEIECR, peptide start residue: 361)”, the log2 fold change was determined as 0.35. For “BANP (peptide sequence: LEINCQDPSIK, peptide start residue: 44) (UniProt Q8N9N5)”, the log2 fold change came to 0.408. With “UniProt Q8NEH6 (peptide sequence: QLEEQEK, peptide start residue: 194)”, the log2 fold change is -0.174. Turning to “SPC24 (peptide sequence: ELEELKEIEADLER, peptide start residue: 107) (UniProt Q8NBT2)”, the log2 fold change came out at 0.364. Turning to “NHLRC2 (peptide sequence: GNMLFSLIGEGHKDK, peptide start residue: 172) (UniProt Q8NBF2)”, the log2 fold change is -0.195. With “DDX55 (peptide sequence: KLQSGILVCTDVMAR, peptide start residue: 316) (UniProt Q8NHQ9)”, the log2 fold change is -0.233. “ZADH2 (peptide sequence: HFLDFQGSAIPQAMQK, peptide start residue: 20) (UniProt Q8N4Q0)”: the log2 fold change was found to be 0.197. In the case of “ZBTB34 (peptide sequence: QPTASSDLR, peptide start residue: 173) (UniProt Q8NCN2)”, the log2 fold change is 0.188. As for “UniProt Q8N9W5 (peptide sequence: QEQLQGFNTR, peptide start residue: 420)”, the log2 fold change came to 0.45. Then “AKR7L (peptide sequence: SQLETSLKR, peptide start residue: 121) (UniProt Q8NHP1)”, with 0.0871; and “UniProt Q8N283 (peptide sequence: ALGGLAK, peptide start residue: 604)”, with -0.0832. Consider “UniProt Q8N371 (peptide sequence: ADHGLIPDVKLEK, peptide start residue: 170)”, for which the log2 fold change was -0.469. With “UniProt Q8NFT6 (peptide sequence: SFYLDLPAGK, peptide start residue: 52)” the figure was 0.0559; with “UniProt Q8N554 (peptide sequence: APGASMERPSAEER, peptide start residue: 98)”, 0.242; with “JMY (peptide sequence: RVSSPMDEVLASLKR, peptide start residue: 886) (UniProt Q8N9B5)”, -0.835. With “UniProt Q8N9E0 (peptide sequence: MNENWKK, peptide start residue: 65)”, the log2 fold change is -0.113. Turning to “TAB3 (peptide sequence: LKSEVNGMEHDLMQR, peptide start residue: 543) (UniProt Q8N5C8)”, the log2 fold change was -0.643. For the target “GTPBP8 (peptide sequence: IFDPSPEDIAR, peptide start residue: 70) (UniProt Q8N3Z3)”, the log2 fold change is 0.621.
